Experimental data published in publication PMC8241732.

Sequences of proteins named here, by UniProt entry; tags and fusion partners are left off.
UniProt Q13485: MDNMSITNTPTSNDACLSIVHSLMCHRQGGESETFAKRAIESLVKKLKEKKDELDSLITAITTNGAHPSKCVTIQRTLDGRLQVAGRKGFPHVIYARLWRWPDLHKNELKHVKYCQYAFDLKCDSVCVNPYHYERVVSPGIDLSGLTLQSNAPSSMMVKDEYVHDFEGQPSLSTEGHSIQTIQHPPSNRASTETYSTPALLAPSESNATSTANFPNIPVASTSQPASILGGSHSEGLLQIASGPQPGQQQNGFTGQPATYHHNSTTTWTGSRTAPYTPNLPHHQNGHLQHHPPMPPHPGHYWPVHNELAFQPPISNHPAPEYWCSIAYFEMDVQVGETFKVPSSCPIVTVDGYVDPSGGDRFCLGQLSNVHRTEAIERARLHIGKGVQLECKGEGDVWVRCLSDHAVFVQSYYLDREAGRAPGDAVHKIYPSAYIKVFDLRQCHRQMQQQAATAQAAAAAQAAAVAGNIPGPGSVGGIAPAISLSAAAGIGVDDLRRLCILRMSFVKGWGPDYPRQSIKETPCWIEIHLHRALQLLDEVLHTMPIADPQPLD
UniProt Q13547: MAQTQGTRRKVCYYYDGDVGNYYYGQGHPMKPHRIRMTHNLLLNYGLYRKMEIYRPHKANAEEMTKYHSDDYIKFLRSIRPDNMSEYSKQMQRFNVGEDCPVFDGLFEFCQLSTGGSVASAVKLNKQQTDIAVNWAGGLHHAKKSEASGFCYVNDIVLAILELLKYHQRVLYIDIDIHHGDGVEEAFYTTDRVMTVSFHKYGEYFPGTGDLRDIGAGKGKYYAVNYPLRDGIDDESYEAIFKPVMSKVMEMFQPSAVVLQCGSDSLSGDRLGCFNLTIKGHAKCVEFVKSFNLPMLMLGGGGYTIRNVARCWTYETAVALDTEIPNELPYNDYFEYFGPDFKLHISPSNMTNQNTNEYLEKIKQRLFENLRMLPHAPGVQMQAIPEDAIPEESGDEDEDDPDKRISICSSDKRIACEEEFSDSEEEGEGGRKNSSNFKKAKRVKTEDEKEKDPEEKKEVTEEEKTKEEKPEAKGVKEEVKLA

Biological target: Smad4 (human (endogenous in IVD tissue of a patient)) (UniProt Q13485)
Assay: affinity purification with mass spectrometry; degenerative IVD tissue lysate (RIPA buffer) immunoprecipitated with anti-Smad4- and IgG-coupled protein A beads; SDS-PAGE, silver staining, bands digested with trypsin, MS

Q: How did the binding turn out when “HDAC1 (histone deacetylase 1) (from UniProt Q13547 1-482)” was run?
A: The binding was “binds”.

Results are given in words; binding and its absence hold for the method and conditions named. Binding seen in cells or lysates may run through a third protein. Here binding means that the protein was enriched with, or labelled near, the bait; the list need not be complete.
